{"source": "patent US7635572B2", "about": "“Methods for conducting assays for enzyme activity on protein microarrays” (Life Technologies Corporation, priority 2004, dated 2009)", "key": {"39 kinases (Table 4)": {"system": "39 kinases (Table 4)", "experiment": "Global specificity profiling, single point inhibition on kinase microarrays (Example VII)", "type": "biochemical", "settings": "substrates histone, casein, MBP, polyEY, control 2% DMSO", "experimental": "To assess the application of microarray assays for compound profiling, seven known inhibitors (see Table of inhibitors used in global specificity profiling experiment) and one control (2% DMSO) were tested on microarrays printed with a group of kinases (as well as positive and negative controls). […] Twelve spots of each kinase or control were printed on each array, and three arrays were used for each inhibitor. A mixture of generic kinase substrates (histone, casein, MBP, and polyEY) was used in the assay. The average of all signals from the same inhibitor or control experiment was calculated.\nTo expedite data analysis regarding the kinase families that are inhibited by a particular […], a graphical representation can be constructed of inhibition data for substrates in such a manner that phylogenetically related kinases can be spatially arranged on the graphical representation."}, "[1]": {"system": "plurality of kinases (Table 5)", "experiment": "Further analysis of a plurality of inhibitors and a plurality of kinases on microarray (Example IX, Table 5);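 note: inhibition of each kinase by the inhibitors is given as a qualitative level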;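 for Inhibition level, Homo sapiens in: level 0 none or unclear Level 1 marginal Level 2 substantial inhibition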;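 for Inhibition level, Homo sapiens, o: level 0 none or unclear Level 1 marginal Level 2 substantial inhibition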", "type": "biochemical"}}, "data": [{"smiles": "CN[C@@H]1C[C@H]2O[C@@](C)([C@@H]1OC)n1c3ccccc3c3c4c(c5c6ccccc6n2c5c31)C(=O)NC4", "note": "[Staurosporine]", "values": [{"measurement": "observed specificity (percentage-of-inhibition data for 39 kinases)", "setting": "39 kinases (Table 4)", "result": "broad spectrum of kinases inhibited"}, {"measurement": "Inhibition level, Homo sapiens in", "setting": "[1]", "result": 2}, {"measurement": "Inhibition level, Homo sapiens p", "setting": "[1]", "result": 2}, {"measurement": "Inhibition level, Homo sapiens, B", "setting": "[1]", "result": 2}, {"measurement": "Inhibition level, Homo sapiens, S", "setting": "[1]", "result": 0}, {"measurement": "Inhibition level, Homo sapiens, o", "setting": "[1]", "result": 0}, {"measurement": "Inhibition level, Homo sapiens, s", "setting": "[1]", "result": 2}]}]}
